Measurements reported in PubChem BioAssay AID1259267 (Sanger Institute, 2017)
Aim: 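Which kinases and bowel-cancer genes GP5D cells need, with or without anchor drugs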 (primary screen). Cell system: human GP5D colorectal cancer cells. Knock-down reagent: siRNA pool against human genes. Treatment: anchor drugs at low dose: BYL719 1 µM, cetuximab 5 µg/ml, trametinib 10 nM, or DMSO vehicle. Measured: 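Mean replicate viability versus non-targeting pool, given as knock-down-alone robust z-score, DMSO fraction, and synergy with low-dose BYL719, cetuximab or trametinib (1 µM, 5 µg/ml, 10 nM)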. Direction: robust z-score, knock-down alone and viability with DMSO: higher = more viable cells; synergy score with trametinib and synergy score with BYL719 and synergy score with cetuximab: higher = stronger synthetic lethal synergy with drug. Hit rule: 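a robust z-score below -3 for the knock-down by itself makes a gene active, i.e. essential alone; synergy scores are ignored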. Meaning of the calls: active = essential alone; inactive = not essential.
Here is one part, drawn at random, of 794 reagents tested. 9 of all reagents (1.1%) were called active. 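Viability capped at 1; calls reflect loss of viability from knock-down alone, not synergy with drugs.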 Not stated in the record: the amount of reagent, the time to read-out.

gene symbol | PubChem SID | robust z-score, knock-down alone | viability with DMSO (fraction of control) | synergy score with trametinib | synergy score with BYL719 | synergy score with cetuximab | Call
SMC1A | SID134311995 | -2.13 | 0.376 | -0.0337 | -0.0395 | -0.0223 | inactive
SRGAP3 | SID152151814 | 0.817 | 1 | -0.144 | -0.315 | -0.142 | inactive
HASPIN | SID152153141 | 0.725 | 0.981 | 0.254 | 0.0666 | 0.0324 | inactive
PFKFB2 | SID135621246 | 0.817 | 1 | 0.0479 | -0.0334 | -0.0767 | inactive
AURKA | SID135620696 | -2.78 | 0.237 | 0.00871 | -0.0517 | 0.00682 | inactive
PIP4K2A | SID135621253 | 0.817 | 1 | -0.197 | -0.168 | -0.142 | inactive
EPHB2 | SID135620616 | 0.62 | 0.958 | 0.166 | -0.0912 | -0.0237 | inactive
CHKB | SID56479083 | 0.817 | 1 | -0.109 | -0.246 | -0.142 | inactive
ITPK1 | SID56479109 | 0.817 | 1 | -0.116 | -0.298 | -0.142 | inactive
TEC | SID152148252 | 0.331 | 0.897 | -0.0485 | -0.0972 | -0.144 | inactive
FYN | SID135620621 | 0.817 | 1 | 0.187 | -0.0816 | -0.0409 | inactive
STK16 | SID152154415 | -1.24 | 0.563 | -0.295 | -0.327 | -0.304 | inactive
CDC42BPA | SID152147424 | -1.82 | 0.44 | -0.0253 | -0.221 | -0.00562 | inactive
MATK | SID152153842 | 0.642 | 0.963 | 0.0817 | -0.185 | -0.127 | inactive
CDK11B | SID152152958 | -2.55 | 0.286 | -0.0504 | -0.186 | -0.22 | inactive
PRKACA | SID135620859 | 0.477 | 0.928 | 0.0066 | -0.187 | -0.204 | inactive
PCBP1 | SID134316528 | -0.00671 | 0.825 | 0.0487 | 0.0428 | 0.16 | inactive
FLT3 | SID152150278 | 0.817 | 1 | 0.183 | -0.26 | -0.142 | inactive
DGKI | SID56479093 | 0.817 | 1 | -0.119 | -0.361 | -0.142 | inactive
HIPK3 | SID152151658 | -2.06 | 0.391 | -0.105 | -0.278 | -0.332 | inactive
LYN | SID135620625 | 0.693 | 0.974 | 0.122 | 0.109 | -0.119 | inactive
TCF7L2 | SID251759863 | 0.817 | 1 | -0.197 | -0.361 | -0.142 | inactive
CSF1R | SID152152485 | -0.779 | 0.662 | 0.196 | 0.0373 | 0.203 | inactive
EPHA7 | SID152149990 | -0.795 | 0.658 | -0.0584 | -0.177 | -0.23 | inactive
TK2 | SID152153963 | 0.817 | 1 | -0.0445 | -0.361 | -0.142 | inactive
CHUK | SID152149746 | 0.125 | 0.853 | -0.285 | -0.195 | -0.0959 | inactive
CDK17 | SID56478886 | 0.363 | 0.904 | -0.148 | -0.199 | -0.0671 | inactive
PAK6 | SID56478794 | 0.817 | 1 | 0.139 | -0.0193 | 0.0591 | inactive
CREBBP | SID152156768 | 0.35 | 0.901 | 0.186 | 0.102 | 0.157 | inactive
DAPK2 | SID152156399 | -0.332 | 0.756 | -0.393 | -0.291 | -0.351 | inactive
NTRK1 | SID152154627 | -0.383 | 0.746 | 0.112 | -0.0154 | -0.0375 | inactive
JAK3 | SID56478525 | 0.817 | 1 | 0.236 | 0.0552 | -0.0212 | inactive
MARK4 | SID56479022 | 0.575 | 0.949 | 0.166 | 0.00352 | -0.0795 | inactive
SOS2 | SID152153288 | 0.817 | 1 | 0.125 | 0.0383 | -0.0495 | inactive
RPS6KL1 | SID152155635 | 0.455 | 0.923 | 0.144 | -0.0134 | 0.105 | inactive
FLT4 | SID152148537 | -0.264 | 0.771 | -0.0199 | -0.505 | -0.109 | inactive
MKNK2 | SID152150791 | 0.35 | 0.901 | 0.0485 | -0.18 | -0.17 | inactive
HSPB8 | SID56478941 | 0.0336 | 0.834 | 0.263 | 0.041 | -0.13 | inactive
ATM | SID152150358 | 0.471 | 0.927 | 0.0464 | -0.125 | -0.0845 | inactive
PLK4 | SID152155543 | -2.9 | 0.212 | -0.0456 | -0.152 | -0.00889 | inactive
CDADC1 | SID56479191 | -0.464 | 0.729 | -0.119 | -0.169 | -0.0308 | inactive
PKIB | SID56479212 | 0.817 | 1 | -0.115 | -0.202 | -0.142 | inactive
TEK | SID152152932 | 0.817 | 1 | -0.0236 | -0.17 | -0.142 | inactive
NUP107 | SID152154550 | -2.77 | 0.24 | -0.147 | -0.291 | -0.176 | inactive
ADCK5 | SID56479281 | 0.259 | 0.882 | -0.185 | -0.128 | -0.116 | inactive
RELA | SID135620694 | -1.55 | 0.498 | 0.148 | -0.207 | 0.00287 | inactive
CDK10 | SID152152801 | -1.69 | 0.469 | 0.0941 | -0.0312 | -0.126 | inactive
UCK2 | SID56478981 | 0.185 | 0.866 | 0.0449 | -0.133 | -0.177 | inactive
PRKG2 | SID56478832 | 0.817 | 1 | 0.192 | 0.0285 | -0.074 | inactive
CSNK1D | SID56478658 | 0.657 | 0.966 | 0.179 | -0.11 | 0.000658 | inactive
JAK1 | SID152154758 | 0.817 | 1 | -0.0984 | -0.235 | -0.142 | inactive
TEX14 | SID152148327 | 0.817 | 1 | 0.243 | -0.197 | -0.142 | inactive
MYLK3 | SID152154935 | -0.178 | 0.789 | 0.121 | -0.167 | -0.274 | inactive
GK2 | SID56479273 | -0.0623 | 0.814 | 0.0477 | -0.134 | -0.00164 | inactive
RIPK1 | SID152148235 | -1.01 | 0.613 | -0.0956 | -0.242 | -0.227 | inactive
NLK | SID56478865 | -0.0796 | 0.81 | 0.328 | -0.0226 | 0.0487 | inactive
PDGFRL | SID134315029 | 0.817 | 1 | 0.00464 | -0.138 | -0.142 | inactive
ADK | SID56478860 | 0.817 | 1 | 0.162 | -0.00571 | -0.0376 | inactive
MPP2 | SID152153278 | 0.817 | 1 | 0.253 | -0.0144 | -0.142 | inactive
GAK | SID152148846 | -0.197 | 0.785 | 0.137 | -0.185 | -0.127 | inactive
NUAK1 | SID56478923 | -1.43 | 0.524 | 0.058 | 0.0157 | -0.147 | inactive
NUCKS1 | SID152150801 | 0.817 | 1 | 0.181 | 0.0882 | -0.142 | inactive
TNNI3K | SID56478945 | 0.817 | 1 | -0.067 | -0.0732 | -0.0178 | inactive

An excerpt from above, showing only “synergy score with BYL719”.
TK2 [SID152153963]: -0.361
CHUK [SID152149746]: -0.195
CDK17 [SID56478886]: -0.199
PAK6 [SID56478794]: -0.0193
CREBBP [SID152156768]: 0.102
DAPK2 [SID152156399]: -0.291
NTRK1 [SID152154627]: -0.0154
JAK3 [SID56478525]: 0.0552
MARK4 [SID56479022]: 0.00352
